In article PMC12165811 one finds binding data, which are given here for one substance.

Protein sequences, listed by entry. Tags and fused reporters are not part of them.
UniProt P09405: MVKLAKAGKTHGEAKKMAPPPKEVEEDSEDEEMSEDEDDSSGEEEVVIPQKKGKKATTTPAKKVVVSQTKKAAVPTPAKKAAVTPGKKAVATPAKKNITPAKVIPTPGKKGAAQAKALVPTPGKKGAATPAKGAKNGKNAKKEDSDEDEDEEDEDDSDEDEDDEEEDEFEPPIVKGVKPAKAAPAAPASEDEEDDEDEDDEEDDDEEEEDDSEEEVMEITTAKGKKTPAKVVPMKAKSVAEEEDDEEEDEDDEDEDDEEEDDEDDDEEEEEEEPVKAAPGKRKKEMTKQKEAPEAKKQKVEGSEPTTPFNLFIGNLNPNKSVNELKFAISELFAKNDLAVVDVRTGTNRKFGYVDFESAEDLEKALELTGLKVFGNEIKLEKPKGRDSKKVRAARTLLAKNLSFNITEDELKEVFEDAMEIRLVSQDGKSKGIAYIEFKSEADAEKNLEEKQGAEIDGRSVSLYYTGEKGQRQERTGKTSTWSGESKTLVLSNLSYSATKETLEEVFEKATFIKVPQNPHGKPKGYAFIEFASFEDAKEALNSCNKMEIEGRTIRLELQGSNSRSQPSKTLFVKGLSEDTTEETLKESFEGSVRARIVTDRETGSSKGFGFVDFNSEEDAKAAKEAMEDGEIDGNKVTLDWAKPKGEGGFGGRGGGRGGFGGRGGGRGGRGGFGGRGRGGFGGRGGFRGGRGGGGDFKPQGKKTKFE

These are yes or no findings as the source states them, for the method shown. In cells and extracts the contact can be indirect. Some results given as binding are weak or reduced against the parent protein; the word gives no strength.

This experiment has as its target HNRNPK (mouse (endogenous in MEFs)) (UniProt P61979). The experiment can be described thus: co-IP; HNRNPK immunoprecipitated from Hnrnpk^SAM and empty vector MEFs with anti-HNRNPK (D6) antibody coupled to Dynabeads M-270 Epoxy; cells cryolysed in liquid nitrogen, resuspended in IP buffer.

As to nucleolin (from UniProt P09405 1-707), the binding result is reported as “binds”.
